No constants are given. Whether binding was seen depends on the method and setting. In cells and extracts the contact can be indirect. These calls come from enrichment with a bait or labelling near it, and not all partners need be listed.

This passage reports binding results from PMC12413633.

Sequences and labels used below:
B1: Tmprss15 (protein, UniProt P97435 1-1069)
chain: MKSSRDEAVGHHSISSFEVMLSALFIMLMVFSIGLIAVSWLAVKESEGDAALGKSHEVRGTFKITSGVTYNPNLQDKHSVDFKVLAFDLQQMIDEIFESSSLKNEYEKSKVFQFEKGSVIVLFDLFFAQWVSDKNVKEELIQGIEANISSQLVTLHIDLNSIDITASLSDFTTAVPVTTSDKLTTSSPMTTSASLGNLSTTVAATTSAPLCNLSTATFATTSGHVSIECQPGSRPCAHAWNCVATDLFCDGEVNCPDGSDEDTGLCATACDGRFLLTGDSGVFQADRYPRPDESGVVCRWIIRVNQGLSIRMNFGSFIPHYTDVLDIYEGIGPSKILRGSFWETDPGTIRIFSNLVTVTFLIKSDEYDYIGFNATYSTFNNSELNNYEKIDCTFDDGFCFWTQDLDDDNEWERIQVTTFPCYTGPRFDHTYGNGSGFYISTPTEQGWRSERVGLSSLSLDLTSEPVCLHFWYYMCCENVYNLNIHISSAETTDKIVFQRKGNYGRNWNYGQVTLNETGEFKVVFNAFRNRGCSTIALDDISLTNGICSQSPYPEPTLVPTPPPELPTDCGGPFELWEPNSTFSSPNFPDKYPNQASCIWNLNAQRGKNIQLHFQEFDLENINDVVEVRDGGEFDSLLLAVYTGPGPVKDLFSTTNRMTVIFTTNMETRRKGFKANFTSGYYLGIPEPCQDDEFQCKDGNCIPLGNLCDSYPHCRDGSDEASCVRFLNGTRSNNGLVQFNIHSIWHIACAENWTTQISNEVCHLLGLGSANSSMPISSTGGGPFVRVNQAPNGSLILTPSLQCSQDSLILLQCNHKSCGEKKVTQKVSPKIVGGSDAQAGAWPWVVALYHRDRSTDRLLCGASLVSSDWLVSAAHCVYRRNLDPTRWTAVLGLHMQSNLTSPQVVRRVVDQIVINPHYDRRRKVNDIAMMHLEFKVNYTDYIQPICLPEENQIFIPGRTCSIAGWGYDKINAGSTVDVLKEADVPLISNEKCQQQLPEYNITESMICAGYEEGGIDSCQGDSGGPLMCQENNRWFLVGVTSFGVQCALPNHPGVYVRVSQFIEWIHSFLH
B2: Klhl8, Kelch Like Family Member 8, mouse (protein, UniProt P59280 1-629)
chain: MASESTNGKQARSHVTKGRRQYQHQHQQQQQQQQQVRSRSSVSECDGDDSFIFEANEAWKDFHGSLLGFYENGELCDVTLKVGSKLISCHKLVLACVIPYFRAMFLSEMSEAKQALIEIRDFDGDAVEDLVKFVYSSRLTLTVDNVQPLLYAACILQVELVARACCEYMQLHFHPSNCLAVRAFAESHNRIDLMDMADQYACEHFTEVVECEDFVSVSPQHLHKLLSSSDLNIDSEKQVYSAAIKWLLANPQHHPKWLDETLAQVRLPLLPVDFLMGVVAKEQIVKQNLKCRDLLDEARNYHLHLSSKPVPDFEYTVRTTPRKHTAGVLFCVGGRGGSGDPFRSIECYSINKNSWFFGPEMNSRRRHVGVISVEGKVYAVGGHDGNEHLGSMEMFDPLTNKWMMKASMNTKRRGIALASLGGPIYAIGGLDDNTCFSDVERYDIESDQWSTVAPMNTPRGGVGSVALINHVYAVGGNDGVASLSSVERYHPHLDKWIEVKEMGQRRAGNGVSELHGCLYVVGGFDDNSPLSSVERYDPRSNKWDYVAALTTPRGGVGIATVMGKIFAVGGHNGNAYLNTVEAFDPVLNKWELVGPVSHCRAGAGVAVCDCLTSQIRDVGHGSTNVVDCM
B3: Nid1 (protein, UniProt P10493 29-1245)
chain: LNRQELFPFGPGQGDLELEAGDDVVSPSLELIGELSFYDRTDITSVYVTTNGIIAMSEPPATEYHPGTFPPSFGSVAPFLADLDTTDGLGNVYYREDLSPFIIQMAAEYVQRGFPEVSFQPTSVVVVTWESVAPYGGPSSSPAEEGKRNTFQAVLASSNSSSYAIFLYPEDGLQFFTTFSKKDESQVPAVVGFSKGLVGFLWKSNGAYNIFANDRESIENLAKSSNAGHQGVWVFEIGSPATAKGVVSADVNLDLDDDGADYEDEDYDLVTSHLGLEDVATPSPSHSPRRGYPDPHNVPRILSPGYEATERPRGVPTERTRSFQLPAERFPQHHPQVIDVDEVEETGVVFSYNTGSQQTCANNRHQCSVHAECRDYATGFCCRCVANYTGNGRQCVAEGSPQRVNGKVKGRIFVGSSQVPVVFENTDLHSYVVMNHGRSYTAISTIPETVGYSLLPLAPIGGIIGWMFAVEQDGFKNGFSITGGEFTRQAEVTFLGHPGKLVLKQQFSGIDEHGHLTISTELEGRVPQIPYGASVHIEPYTELYHYSSSVITSSSTREYTVMEPDQDGAAPSHTHIYQWRQTITFQECAHDDARPALPSTQQLSVDSVFVLYNKEERILRYALSNSIGPVRDGSPDALQNPCYIGTHGCDSNAACRPGPGTQFTCECSIGFRGDGQTCYDIDECSEQPSRCGNHAVCNNLPGTFRCECVEGYHFSDRGTCVAAEDQRPINYCETGLHNCDIPQRAQCIYMGGSSYTCSCLPGFSGDGRACRDVDECQHSRCHPDAFCYNTPGSFTCQCKPGYQGDGFRCMPGEVSKTRCQLEREHILGAAGGADAQRPTLQGMFVPQCDEYGHYVPTQCHHSTGYCWCVDRDGRELEGSRTPPGMRPPCLSTVAPPIHQGPVVPTAVIPLPPGTHLLFAQTGKIERLPLERNTMKKTEAKAFLHIPAKVIIGLAFDCVDKVVYWTDISEPSIGRASLHGGEPTTIIRQDLGSPEGIALDHLGRTIFWTDSQLDRIEVAKMDGTQRRVLFDTGLVNPRGIVTDPVRGNLYWTDWNRDNPKIETSHMDGTNRRILAQDNLGLPNGLTFDAFSSQLCWVDAGTHRAECLNPAQPGRRKVLEGLQYPFAVTSYGKNLYYTDWKTNSVIAMDLAISKEMDTFHPHKQTRLYGITIALSQCPQGHNYCSVNNGGCTHLCLPTPGSRTCRCPDNTLGVDCIERK
B4: Ppm1l (Protein Phosphatase, Mg2+/Mn2+ Dependent 1 L), mouse (enzyme, UniProt Q8BHN0 1-360)
chain: MIEDTMTLLSLLGRIMRYFLLRPETLFLLCISLALWSYFFHTDEVKTIVKSSRDAVKMVKGKVAEIMQNDRLGGLDVLEAEFSKTWEFKSHNVAVYSIQGRRDHMEDRFEVLTDLANKTHPSIFGIFDGHGGETAAEYVKSRLPEALKQHLQDYEKDKENSVLTYQTILEQQILSIDREMLEKLTVSYDEAGTTCLIALLSDKDLTVANVGDSRGVLCDKDGNAIPLSHDHKPYQLKERKRIKRAGGFISFNGSWRVQGILAMSRSLGDYPLKNLNVVIPDPDILTFDLDKLQPEFMILASDGLWDAFSNEEAVRFIKERLDEPHFGAKSIVLQSFYRGCPDNITVMVVKFRNSSKTEEH

In the assay the target is Microtubule-associated protein 2 (MAP2) with the phosphomimetic mutation S1782E, mouse (mouse (endogenous in cerebral cortex)). The assay can be described thus: affinity purification with mass spectrometry; MAP2 precipitated from cerebral cortex lysate of MAP2 WT or S1782E+/- mice (N = 8 per group) with HM-2 antibody on Dynabeads; no-antibody beads as control; washed with PBS; LC-MS/MS; SAINTq, BFDR <= 0.05.
With B1, the binding entry was “binds”.

Take B2: the binding result is “binds”.

For the molecule B3, the binding result is reported as “binds”.

For B4, the binding entry is “binds”.
